1 molecule from publication PMC4148261 can be followed below.

The chains behind the UniProt entries cited, without tags or fusion partners.
UniProt Q61696: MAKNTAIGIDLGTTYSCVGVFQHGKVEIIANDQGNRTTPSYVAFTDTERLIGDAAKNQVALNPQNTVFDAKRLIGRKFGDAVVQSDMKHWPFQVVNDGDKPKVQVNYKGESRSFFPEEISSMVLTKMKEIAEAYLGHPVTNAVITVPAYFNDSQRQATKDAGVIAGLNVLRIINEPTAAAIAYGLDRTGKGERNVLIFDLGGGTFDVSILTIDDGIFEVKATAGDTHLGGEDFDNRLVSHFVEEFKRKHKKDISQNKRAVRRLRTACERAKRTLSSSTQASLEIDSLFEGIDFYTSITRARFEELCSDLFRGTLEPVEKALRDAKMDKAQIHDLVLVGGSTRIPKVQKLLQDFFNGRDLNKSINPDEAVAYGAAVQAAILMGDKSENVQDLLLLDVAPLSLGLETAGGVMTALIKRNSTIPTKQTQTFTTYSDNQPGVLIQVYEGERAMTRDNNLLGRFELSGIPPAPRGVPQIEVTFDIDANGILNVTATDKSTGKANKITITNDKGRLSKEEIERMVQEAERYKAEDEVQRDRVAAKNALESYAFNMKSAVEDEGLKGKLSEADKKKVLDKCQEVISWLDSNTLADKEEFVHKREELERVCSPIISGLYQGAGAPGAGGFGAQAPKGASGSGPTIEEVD
UniProt P0DMV8: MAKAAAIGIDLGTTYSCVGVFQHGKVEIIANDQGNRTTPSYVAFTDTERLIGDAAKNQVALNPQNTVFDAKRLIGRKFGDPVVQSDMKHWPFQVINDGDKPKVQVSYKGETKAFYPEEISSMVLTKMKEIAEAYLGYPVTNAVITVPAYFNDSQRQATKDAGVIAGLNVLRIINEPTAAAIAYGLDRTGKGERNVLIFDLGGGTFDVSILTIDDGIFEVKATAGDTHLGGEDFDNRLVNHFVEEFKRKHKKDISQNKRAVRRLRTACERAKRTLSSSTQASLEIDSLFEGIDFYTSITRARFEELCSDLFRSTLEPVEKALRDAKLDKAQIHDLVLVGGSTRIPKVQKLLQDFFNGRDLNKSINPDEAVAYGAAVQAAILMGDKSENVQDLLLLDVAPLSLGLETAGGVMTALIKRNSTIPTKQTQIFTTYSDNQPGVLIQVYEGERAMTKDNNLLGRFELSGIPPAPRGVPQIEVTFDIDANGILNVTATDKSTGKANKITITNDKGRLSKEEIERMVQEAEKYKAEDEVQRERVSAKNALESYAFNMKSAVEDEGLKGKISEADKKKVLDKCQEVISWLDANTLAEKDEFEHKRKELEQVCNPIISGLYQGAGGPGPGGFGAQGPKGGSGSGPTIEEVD

In experiment [1] the target is membrane Hsp70 on mouse 4T1 wild type breast cancer cells (mouse (endogenous in 4T1)) (UniProt Q61696). Description: flow cytometry on cells; viable 4T1 wt cells stained with CF-labeled TPP, 4T1 Hsp70-/- knock-out cells as control; only the binder purified. (In general: Flow cytometry measures light scatter and fluorescence of single cells or particles in a stream.)
Experiment [2] deals with membrane-bound form of Hsp70 (memHsp70) on human tumor cell lines (human (endogenous in human tumor cell lines)) (UniProt P0DMV8). Description: flow cytometry on cells; viable human tumor cell lines (2x10^5 cells) incubated with CF-labeled TPP 30 min at 4°C, two washes, propidium iodide negative cells analysed; only the binder purified.

Results are given in words; binding and its absence hold for the method and conditions named. Some entries that bind do so weakly or less than the wild type.

With TKDNNLLGRFELSG (carboxyfluorescein (CF) label, position not stated) [carboxy-fluorescein (CF-) labeled 14-mer tumor penetrating peptide (TPP)], the binding entry in experiment [1] and in experiment [2] was “binds” each time.
